# Measured values reported in the supplement of paper PMC11006884.
# Sequences of proteins named here, by UniProt entry; tags and fusion partners are left off. A change or cut given only in a name is not applied to a line headed by its entry.
# UniProt O75380, whole entry: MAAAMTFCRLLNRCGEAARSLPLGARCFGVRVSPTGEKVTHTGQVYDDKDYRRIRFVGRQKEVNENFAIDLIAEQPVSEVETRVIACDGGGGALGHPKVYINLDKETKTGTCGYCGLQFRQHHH
# UniProt O75717: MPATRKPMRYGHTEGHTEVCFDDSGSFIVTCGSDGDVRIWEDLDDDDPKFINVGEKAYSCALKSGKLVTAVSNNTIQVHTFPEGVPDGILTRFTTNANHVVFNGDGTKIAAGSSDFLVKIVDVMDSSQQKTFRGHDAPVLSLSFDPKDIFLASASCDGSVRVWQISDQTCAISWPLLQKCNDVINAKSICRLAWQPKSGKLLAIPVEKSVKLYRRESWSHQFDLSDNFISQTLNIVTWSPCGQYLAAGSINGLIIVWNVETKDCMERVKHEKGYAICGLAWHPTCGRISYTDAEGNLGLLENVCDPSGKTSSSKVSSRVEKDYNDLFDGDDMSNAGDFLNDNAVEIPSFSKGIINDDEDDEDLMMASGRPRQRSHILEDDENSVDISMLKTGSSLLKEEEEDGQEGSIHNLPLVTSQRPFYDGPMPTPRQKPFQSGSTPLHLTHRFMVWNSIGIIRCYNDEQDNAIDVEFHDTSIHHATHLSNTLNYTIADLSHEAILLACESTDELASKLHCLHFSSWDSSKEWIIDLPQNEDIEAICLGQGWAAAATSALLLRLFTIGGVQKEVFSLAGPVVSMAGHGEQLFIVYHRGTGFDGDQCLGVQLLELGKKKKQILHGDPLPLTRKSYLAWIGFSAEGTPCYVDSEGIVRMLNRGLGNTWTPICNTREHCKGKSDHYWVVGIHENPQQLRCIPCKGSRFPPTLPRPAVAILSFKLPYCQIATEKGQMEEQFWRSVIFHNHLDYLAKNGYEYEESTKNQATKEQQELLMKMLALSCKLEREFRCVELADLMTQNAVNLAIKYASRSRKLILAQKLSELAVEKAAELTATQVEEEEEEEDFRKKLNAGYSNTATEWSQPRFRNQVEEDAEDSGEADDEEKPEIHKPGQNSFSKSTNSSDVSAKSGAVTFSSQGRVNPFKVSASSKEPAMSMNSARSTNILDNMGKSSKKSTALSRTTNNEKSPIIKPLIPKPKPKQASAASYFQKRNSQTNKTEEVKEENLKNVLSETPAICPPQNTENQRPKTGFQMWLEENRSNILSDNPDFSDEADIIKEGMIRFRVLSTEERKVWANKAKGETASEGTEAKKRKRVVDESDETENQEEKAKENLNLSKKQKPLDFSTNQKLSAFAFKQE
# UniProt O75179: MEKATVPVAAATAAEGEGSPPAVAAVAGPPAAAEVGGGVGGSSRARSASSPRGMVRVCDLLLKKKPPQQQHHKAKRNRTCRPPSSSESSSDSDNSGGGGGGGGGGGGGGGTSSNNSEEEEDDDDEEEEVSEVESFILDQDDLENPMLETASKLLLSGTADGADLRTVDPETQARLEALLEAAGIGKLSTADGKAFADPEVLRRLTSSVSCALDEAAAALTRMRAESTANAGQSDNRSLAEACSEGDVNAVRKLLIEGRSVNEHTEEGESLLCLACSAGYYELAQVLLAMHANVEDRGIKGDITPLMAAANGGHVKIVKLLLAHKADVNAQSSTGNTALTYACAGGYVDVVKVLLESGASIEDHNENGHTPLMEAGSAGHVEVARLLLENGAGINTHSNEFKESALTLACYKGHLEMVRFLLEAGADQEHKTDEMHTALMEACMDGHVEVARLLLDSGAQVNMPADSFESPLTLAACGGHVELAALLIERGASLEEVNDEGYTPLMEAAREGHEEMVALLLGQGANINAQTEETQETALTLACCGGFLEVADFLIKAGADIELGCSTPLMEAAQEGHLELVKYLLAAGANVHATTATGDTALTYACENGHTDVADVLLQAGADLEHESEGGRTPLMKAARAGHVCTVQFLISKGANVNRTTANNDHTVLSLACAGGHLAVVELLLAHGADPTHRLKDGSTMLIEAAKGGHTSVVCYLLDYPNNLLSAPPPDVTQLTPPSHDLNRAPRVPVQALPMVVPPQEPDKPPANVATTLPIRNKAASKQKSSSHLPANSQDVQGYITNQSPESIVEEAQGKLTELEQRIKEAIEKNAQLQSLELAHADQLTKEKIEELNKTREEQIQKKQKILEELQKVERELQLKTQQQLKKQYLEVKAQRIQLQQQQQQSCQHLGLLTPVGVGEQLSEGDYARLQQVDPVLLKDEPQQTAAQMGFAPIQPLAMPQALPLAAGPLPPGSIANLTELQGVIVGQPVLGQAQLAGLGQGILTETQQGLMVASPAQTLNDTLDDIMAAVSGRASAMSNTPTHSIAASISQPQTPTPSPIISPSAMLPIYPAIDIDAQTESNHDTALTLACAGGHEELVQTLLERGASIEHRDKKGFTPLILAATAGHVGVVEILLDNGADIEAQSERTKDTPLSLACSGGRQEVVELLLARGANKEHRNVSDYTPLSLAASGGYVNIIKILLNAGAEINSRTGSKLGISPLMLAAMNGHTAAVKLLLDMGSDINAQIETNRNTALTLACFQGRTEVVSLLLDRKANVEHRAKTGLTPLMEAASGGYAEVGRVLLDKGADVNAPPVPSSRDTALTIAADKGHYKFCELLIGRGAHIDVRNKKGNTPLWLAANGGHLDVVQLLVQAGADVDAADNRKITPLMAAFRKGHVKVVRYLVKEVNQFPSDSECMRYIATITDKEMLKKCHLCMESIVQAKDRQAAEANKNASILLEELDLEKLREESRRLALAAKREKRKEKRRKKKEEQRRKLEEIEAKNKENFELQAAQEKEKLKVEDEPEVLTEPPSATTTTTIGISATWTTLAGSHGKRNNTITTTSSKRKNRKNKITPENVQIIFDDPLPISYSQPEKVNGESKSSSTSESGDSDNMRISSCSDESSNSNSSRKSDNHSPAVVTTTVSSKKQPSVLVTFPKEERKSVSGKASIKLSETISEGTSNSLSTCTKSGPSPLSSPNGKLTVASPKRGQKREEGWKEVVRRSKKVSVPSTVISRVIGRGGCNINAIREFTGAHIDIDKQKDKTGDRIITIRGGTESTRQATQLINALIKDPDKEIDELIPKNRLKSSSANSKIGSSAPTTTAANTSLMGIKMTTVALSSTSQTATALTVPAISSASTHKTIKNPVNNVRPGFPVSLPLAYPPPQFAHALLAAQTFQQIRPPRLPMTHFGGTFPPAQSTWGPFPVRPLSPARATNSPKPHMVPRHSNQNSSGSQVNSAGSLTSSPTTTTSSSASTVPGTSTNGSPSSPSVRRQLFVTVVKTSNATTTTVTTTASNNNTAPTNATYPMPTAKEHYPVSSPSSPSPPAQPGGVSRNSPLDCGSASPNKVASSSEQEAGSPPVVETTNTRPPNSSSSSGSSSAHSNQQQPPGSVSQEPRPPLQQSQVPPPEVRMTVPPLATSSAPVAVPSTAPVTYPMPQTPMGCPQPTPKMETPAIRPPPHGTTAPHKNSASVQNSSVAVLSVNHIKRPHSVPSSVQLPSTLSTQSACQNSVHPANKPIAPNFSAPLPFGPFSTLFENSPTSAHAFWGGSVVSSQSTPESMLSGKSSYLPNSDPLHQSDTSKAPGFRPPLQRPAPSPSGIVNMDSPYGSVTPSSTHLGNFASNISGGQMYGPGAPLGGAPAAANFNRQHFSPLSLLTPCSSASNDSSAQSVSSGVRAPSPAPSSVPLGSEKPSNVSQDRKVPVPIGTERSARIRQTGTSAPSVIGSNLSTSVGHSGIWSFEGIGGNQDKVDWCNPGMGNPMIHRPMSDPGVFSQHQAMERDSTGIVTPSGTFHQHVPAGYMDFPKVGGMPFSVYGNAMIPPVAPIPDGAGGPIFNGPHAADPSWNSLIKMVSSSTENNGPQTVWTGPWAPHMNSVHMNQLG
# UniProt O60784, whole entry: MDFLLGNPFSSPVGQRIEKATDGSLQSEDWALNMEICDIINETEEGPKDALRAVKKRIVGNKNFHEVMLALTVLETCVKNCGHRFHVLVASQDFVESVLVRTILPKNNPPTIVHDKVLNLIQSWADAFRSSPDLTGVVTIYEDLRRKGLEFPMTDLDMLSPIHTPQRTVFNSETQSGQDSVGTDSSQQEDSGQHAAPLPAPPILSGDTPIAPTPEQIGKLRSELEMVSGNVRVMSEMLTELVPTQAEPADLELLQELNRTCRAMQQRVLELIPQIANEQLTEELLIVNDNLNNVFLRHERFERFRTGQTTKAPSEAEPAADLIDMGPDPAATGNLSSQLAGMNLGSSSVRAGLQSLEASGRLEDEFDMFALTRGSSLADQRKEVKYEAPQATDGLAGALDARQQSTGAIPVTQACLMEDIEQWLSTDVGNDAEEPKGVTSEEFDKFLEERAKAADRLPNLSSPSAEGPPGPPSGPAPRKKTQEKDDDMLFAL
# UniProt O43663: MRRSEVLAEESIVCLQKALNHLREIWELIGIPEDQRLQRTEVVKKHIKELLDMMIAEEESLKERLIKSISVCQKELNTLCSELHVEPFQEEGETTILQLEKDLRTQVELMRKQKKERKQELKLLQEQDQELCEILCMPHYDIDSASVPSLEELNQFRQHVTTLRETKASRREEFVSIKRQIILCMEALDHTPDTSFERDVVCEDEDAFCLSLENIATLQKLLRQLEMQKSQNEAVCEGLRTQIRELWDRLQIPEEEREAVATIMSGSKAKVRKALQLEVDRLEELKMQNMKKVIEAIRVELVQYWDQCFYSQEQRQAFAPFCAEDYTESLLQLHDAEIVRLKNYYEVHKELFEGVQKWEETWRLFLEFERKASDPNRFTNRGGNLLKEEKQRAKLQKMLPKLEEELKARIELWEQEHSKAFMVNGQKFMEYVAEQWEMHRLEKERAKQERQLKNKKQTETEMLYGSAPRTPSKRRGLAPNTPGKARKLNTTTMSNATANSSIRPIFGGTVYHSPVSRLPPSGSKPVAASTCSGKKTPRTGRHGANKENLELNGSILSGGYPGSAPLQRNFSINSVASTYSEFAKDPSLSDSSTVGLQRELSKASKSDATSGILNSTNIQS
# UniProt O75223: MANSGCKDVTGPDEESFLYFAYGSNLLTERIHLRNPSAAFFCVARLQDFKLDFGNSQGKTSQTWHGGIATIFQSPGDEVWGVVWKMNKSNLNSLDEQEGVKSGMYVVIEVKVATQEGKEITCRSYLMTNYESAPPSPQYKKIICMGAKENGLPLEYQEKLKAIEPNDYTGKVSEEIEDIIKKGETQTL
# UniProt O75116: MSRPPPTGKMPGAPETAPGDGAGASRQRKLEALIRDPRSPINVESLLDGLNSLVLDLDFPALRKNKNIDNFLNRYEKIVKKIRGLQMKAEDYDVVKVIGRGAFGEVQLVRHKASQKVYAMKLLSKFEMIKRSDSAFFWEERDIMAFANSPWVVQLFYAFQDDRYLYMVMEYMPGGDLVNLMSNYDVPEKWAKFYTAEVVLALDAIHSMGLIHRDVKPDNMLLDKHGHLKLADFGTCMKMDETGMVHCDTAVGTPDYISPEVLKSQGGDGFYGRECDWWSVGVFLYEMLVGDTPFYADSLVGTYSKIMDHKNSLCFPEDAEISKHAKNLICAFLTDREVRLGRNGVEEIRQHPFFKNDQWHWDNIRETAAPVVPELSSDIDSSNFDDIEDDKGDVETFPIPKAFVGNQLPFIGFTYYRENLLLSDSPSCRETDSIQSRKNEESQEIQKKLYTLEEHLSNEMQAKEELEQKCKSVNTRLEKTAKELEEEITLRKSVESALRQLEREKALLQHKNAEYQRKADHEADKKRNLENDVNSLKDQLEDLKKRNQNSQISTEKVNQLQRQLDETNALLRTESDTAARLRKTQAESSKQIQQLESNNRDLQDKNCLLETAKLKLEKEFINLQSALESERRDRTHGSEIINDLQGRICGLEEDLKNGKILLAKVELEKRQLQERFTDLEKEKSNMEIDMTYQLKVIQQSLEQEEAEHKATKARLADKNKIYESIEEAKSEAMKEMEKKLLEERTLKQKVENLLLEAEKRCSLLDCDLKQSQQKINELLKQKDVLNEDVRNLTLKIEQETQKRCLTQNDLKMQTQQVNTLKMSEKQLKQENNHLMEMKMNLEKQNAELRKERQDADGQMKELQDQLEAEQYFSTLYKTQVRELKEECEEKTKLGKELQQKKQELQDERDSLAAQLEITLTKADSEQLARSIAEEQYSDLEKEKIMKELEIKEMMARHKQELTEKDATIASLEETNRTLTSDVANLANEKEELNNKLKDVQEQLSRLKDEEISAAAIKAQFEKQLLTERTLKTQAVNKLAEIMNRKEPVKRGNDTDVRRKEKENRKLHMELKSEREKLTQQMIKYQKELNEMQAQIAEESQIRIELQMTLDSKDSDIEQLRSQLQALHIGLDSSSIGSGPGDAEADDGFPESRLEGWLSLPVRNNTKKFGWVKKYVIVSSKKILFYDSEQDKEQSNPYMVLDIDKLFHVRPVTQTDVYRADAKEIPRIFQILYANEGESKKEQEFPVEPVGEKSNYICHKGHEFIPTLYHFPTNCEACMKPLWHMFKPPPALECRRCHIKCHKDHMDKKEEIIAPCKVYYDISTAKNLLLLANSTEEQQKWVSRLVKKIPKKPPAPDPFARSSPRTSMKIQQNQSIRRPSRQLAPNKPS
# This is a selection; strong and weak results do not stand in their true shares.
# Compound: COC(=O)C#Cc1ccccc1 [methyl 3-phenylpropiolate]
# Assay: log2 ratio of iodoacetamide-alkyne labeling of the cysteine site, DMSO over compound (competition); higher = stronger covalent engagement of the cysteine by the compound, active = 1 or more
# Details: 500 µM; treatment time 1 h; system: HEK293T cell lysate
# How it was run: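 For each cysteine, the log2 competition ratio is mean control-channel reporter intensity over mean compound-channel reporter intensity. HEK293T lysate (2 mg/mL) was exposed to vehicle or electrophile (500 µM, 1 h, ambient temperature), labelled with iodoacetamide alkyne (1 h), clicked to sCIP-TMT reagents, digested overnight with trypsin at 37 °C, streptavidin-enriched and analysed by Orbitrap Eclipse LC-MS/MS with FAIMS and FragPipe. Cysteines quantified in only one of three replicates, each with duplicate channels, were excluded.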
row,Target,log2 ratio of iodoacetamide-alkyne labeling
1,RRP9 C296 (UniProt O43818),inactive: 0.3
2,NDUFS6 C87 (UniProt O75380),inactive: 0.043
3,WDHD1 C304 (UniProt O75717),inactive: -0.132
4,ANKRD17 C58 (UniProt O75179),active: 1.35
5,UniProt O75170_C762,inactive: 0.241
6,LYPLA1 C169 (UniProt O75608),inactive: 0.127
7,TOM1 C37 (UniProt O60784),inactive: 0.537
8,PAPSS1 C212 (UniProt O43252),inactive: -0.125
9,HNRNPR C240 (UniProt O43390),inactive: 0.0333
10,PRC1 C132 (UniProt O43663),inactive: -0.0971
11,GGCT C6 (UniProt O75223),inactive: 0.209
12,UniProt O75153_C333,inactive: 0.499
13,SURF6 C189 (UniProt O75683),inactive: 0.356
14,ROCK2 C607 (UniProt O75116),inactive: 0.0495
15,CSDE1 C53 (UniProt O75534),inactive: 0.329

# Records 13–14, reprinted for reference:
row,Target,log2 ratio of iodoacetamide-alkyne labeling
13,SURF6 C189 (UniProt O75683),inactive: 0.356
14,ROCK2 C607 (UniProt O75116),inactive: 0.0495
